PubChem BioAssay AID504786 – Drosophila RNAi Screening Center | 2011
Test: 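Positive regulators of HIF-driven reporter output in Drosophila cells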 (primary screen). System: Drosophila S2 cells with a stable HIF luciferase reporter. Reagents: long dsRNA against Drosophila genes, about 0.2 µg dsRNA per well of a 384-well plate. Duration: three days of knock-down, then 20 h of DFO before reading. Conditions: desferrioxamine (DFO) at 100 µM, an iron chelator that mimics hypoxia, for 20 h. Measurement: 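HIF reporter luminescence in cells given 100 µM DFO for 20 h, using the mouse ldh-a hypoxia-response element, scored as per-plate z-scores; higher means greater loss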. Reading the numbers: z-score: higher = stronger loss of HIF reporter signal.
The screen tested about 21,000 reagents; this is an unselected part of those with a known target gene and a result. 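Primary screen; positive scores mean lost reporter signal, so the sign may be inverted from the usual convention.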 The numbers tell different reagents against one gene apart. Further read-outs or replicates are left out here.

Against CG13405, the entry reads z-score, replicate 1 = -0.4.
With knock-down of PIG-N (Phosphatidylinositol glycan anchor biosynthesis class N) the results were z-score, replicate 1 = 0.
betaNACtes1 (Nascent-associated complex beta-subunit-like, testis 1) scored z-score, replicate 1 = -0.4.
Knock-down of galene #1 came out at: z-score, replicate 1 = -0.4.
galene #2 scored z-score, replicate 1 = -0.3.
Silencing of CG14069 resulted in: z-score, replicate 1 = -0.2.
Silencing of Cftr (CF transmembrane conductance regulator) resulted in: z-score, replicate 1 = -0.3.
Depletion of alpha4GT2 (alpha1,4-galactosyltransferase 2) resulted in: z-score, replicate 1 = -0.4.
After knock-down of PGAP5 (Post-GPI attachment to proteins 5) the results were z-score, replicate 1 = -0.3.
For capt (capulet) #1, the values are z-score, replicate 1 = -0.2.
Depletion of capt (capulet) #2 gave: z-score, replicate 1 = -0.5.
Knock-down of PlexB (Plexin B) gave: z-score, replicate 1 = -0.3.
GM130 (Golgi matrix protein 130 kD) showed z-score, replicate 1 = -0.3.
CG34345 showed z-score, replicate 1 = -0.3.
Depletion of Acph-1 (Acid phosphatase 1) gave: z-score, replicate 1 = -0.3.
ind (intermediate neuroblasts defective) showed z-score, replicate 1 = 4.8.
Silencing of CG11597 came out at: z-score, replicate 1 = -0.1.
Depletion of CG30195 resulted in: z-score, replicate 1 = -0.3.
Knock-down of Cds (CDP-diacylglycerol synthase) came out at: z-score, replicate 1 = -0.2.
After knock-down of Oga (O-GlcNAcase), the screen gave z-score, replicate 1 = -0.1.
CG4630 scored z-score, replicate 1 = -0.2.
For PH4alphaNE3 (prolyl-4-hydroxylase-alpha NE3), the values are z-score, replicate 1 = -0.3.
Against CG5815 the deposit lists z-score, replicate 1 = -0.3.
With knock-down of AdipoR (Adiponectin receptor), the record shows z-score, replicate 1 = -0.3.
ND-SGDH (NADH dehydrogenase (ubiquinone) SGDH subunit) showed z-score, replicate 1 = -0.1.
After knock-down of CG33459, the screen gave z-score, replicate 1 = -0.3.
For CG13250, the values are z-score, replicate 1 = -0.2.
Ir52d (Ionotropic receptor 52d) showed z-score, replicate 1 = 0.1.
Against Mst98Ca (Male-specific RNA 98Ca) the deposit lists z-score, replicate 1 = -0.4.
For Cep290 (Centrosomal protein 290kDa) the deposit lists z-score, replicate 1 = -0.3.
bi (bifid) showed z-score, replicate 1 = -0.3.
Against Atat (alpha-tubulin acetylase), the entry reads z-score, replicate 1 = -0.2.
With knock-down of Task6 (TWIK-related acid-sensitive K[+] channel 6) the results were z-score, replicate 1 = -0.3.
With knock-down of Deaf1 (Deformed epidermal autoregulatory factor-1), the screen gave z-score, replicate 1 = -0.3.
Against unc-5 #1, the values are z-score, replicate 1 = -0.2.
unc-5 #2 gave z-score, replicate 1 = -0.2.
unc-5 #3 scored z-score, replicate 1 = -0.2.
Depletion of CG10031 resulted in: z-score, replicate 1 = -0.4.
With knock-down of CG8188, the record shows z-score, replicate 1 = -0.3.
SrpRalpha (Signal recognition particle receptor alpha) gave z-score, replicate 1 = -0.2.
Silencing of CR10032 (pseudo) came out at: z-score, replicate 1 = -0.1.
CG8531 scored z-score, replicate 1 = -0.3.
After knock-down of CG11384, the screen gave z-score, replicate 1 = -0.3.
Knock-down of CG13871 gave: z-score, replicate 1 = 0.2.
CG11865 showed z-score, replicate 1 = 2.
Against rl (rolled) #1, the values are z-score, replicate 1 = 0.2.
Against rl (rolled) #2 the deposit lists z-score, replicate 1 = 0.2.
Against CG34202 the deposit lists z-score, replicate 1 = 0.7.
After knock-down of DIP-epsilon (Dpr-interacting protein epsilon) #1 the results were z-score, replicate 1 = 0.3.
Silencing of DIP-epsilon (Dpr-interacting protein epsilon) #2 came out at: z-score, replicate 1 = 0.2.
Depletion of CG34357 #1 came out at: z-score, replicate 1 = -0.2.
With knock-down of CG34357 #2, the screen gave z-score, replicate 1 = 0.2.
After knock-down of CG34357 #3, the screen gave z-score, replicate 1 = -0.3.

Part of the list above, reformatted:
{"Target gene": "Deaf1 (Deformed epidermal autoregulatory factor-1)", "reagent": 1, "z-score, replicate 1": -0.3}
{"Target gene": "unc-5", "reagent": 1, "z-score, replicate 1": -0.2}
{"Target gene": "unc-5", "reagent": 2, "z-score, replicate 1": -0.2}
{"Target gene": "unc-5", "reagent": 3, "z-score, replicate 1": -0.2}
